The source of these data is article PMC4486450.

Amino acid sequences for entries named in this document (tags omitted).
UniProt P38936: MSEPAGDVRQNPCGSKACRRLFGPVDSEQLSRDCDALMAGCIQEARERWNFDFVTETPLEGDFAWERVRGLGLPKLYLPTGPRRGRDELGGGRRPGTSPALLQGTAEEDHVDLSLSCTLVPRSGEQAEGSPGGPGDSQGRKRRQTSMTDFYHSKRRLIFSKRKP
UniProt P49715: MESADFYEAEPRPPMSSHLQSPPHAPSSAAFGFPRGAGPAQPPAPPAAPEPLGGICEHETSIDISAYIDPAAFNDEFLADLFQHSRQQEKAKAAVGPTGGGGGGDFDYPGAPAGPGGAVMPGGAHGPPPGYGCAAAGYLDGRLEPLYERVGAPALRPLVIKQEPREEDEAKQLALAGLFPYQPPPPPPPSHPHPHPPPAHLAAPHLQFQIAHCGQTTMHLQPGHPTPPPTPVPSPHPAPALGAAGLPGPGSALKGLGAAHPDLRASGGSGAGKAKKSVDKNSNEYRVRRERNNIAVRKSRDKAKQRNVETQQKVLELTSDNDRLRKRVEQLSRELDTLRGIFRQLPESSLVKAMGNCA

The target of the experiment is p21 (Waf1/Cip1) (human) (UniProt P38936). Nature of the experiment: co-IP; HepG2 cells co-transfected with plasmids expressing C/EBPα and p21; extracts three days after transfection; lysate incubated overnight at 4°C with rabbit polyclonal anti-p21 antibody and Protein G Mag Sepharose; immunoblot with anti-C/EBPα antibody. On the technique in general: A western blot detects proteins with antibodies after separation by electrophoresis.

These are yes or no findings as the source states them, for the method shown. Binding seen in cells or lysates may run through a third protein. Some results given as binding are weak or reduced against the parent protein; the word gives no strength.

Take “CCAAT/enhancer-binding protein α (from UniProt P49715 1-358)”: the binding entry is on record as “binds”.
